Experimental data reported in the supplement of paper PMC10849652.
The other results are listed elsewhere or left out.

The chains behind the UniProt entries cited, without tags or fusion partners. Where a name states a change or a piece, a line headed by the entry shows the natural chain unless it says otherwise.
UniProt Q9H7C9: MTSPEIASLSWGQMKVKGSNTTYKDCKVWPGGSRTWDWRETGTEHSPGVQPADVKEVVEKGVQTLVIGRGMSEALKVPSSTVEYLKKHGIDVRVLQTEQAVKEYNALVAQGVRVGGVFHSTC
UniProt Q9NX38: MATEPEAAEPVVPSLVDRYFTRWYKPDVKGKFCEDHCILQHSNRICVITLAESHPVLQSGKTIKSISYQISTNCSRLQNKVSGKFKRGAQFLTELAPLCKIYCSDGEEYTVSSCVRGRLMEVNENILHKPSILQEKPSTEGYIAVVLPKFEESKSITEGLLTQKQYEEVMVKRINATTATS
UniProt Q9UG63: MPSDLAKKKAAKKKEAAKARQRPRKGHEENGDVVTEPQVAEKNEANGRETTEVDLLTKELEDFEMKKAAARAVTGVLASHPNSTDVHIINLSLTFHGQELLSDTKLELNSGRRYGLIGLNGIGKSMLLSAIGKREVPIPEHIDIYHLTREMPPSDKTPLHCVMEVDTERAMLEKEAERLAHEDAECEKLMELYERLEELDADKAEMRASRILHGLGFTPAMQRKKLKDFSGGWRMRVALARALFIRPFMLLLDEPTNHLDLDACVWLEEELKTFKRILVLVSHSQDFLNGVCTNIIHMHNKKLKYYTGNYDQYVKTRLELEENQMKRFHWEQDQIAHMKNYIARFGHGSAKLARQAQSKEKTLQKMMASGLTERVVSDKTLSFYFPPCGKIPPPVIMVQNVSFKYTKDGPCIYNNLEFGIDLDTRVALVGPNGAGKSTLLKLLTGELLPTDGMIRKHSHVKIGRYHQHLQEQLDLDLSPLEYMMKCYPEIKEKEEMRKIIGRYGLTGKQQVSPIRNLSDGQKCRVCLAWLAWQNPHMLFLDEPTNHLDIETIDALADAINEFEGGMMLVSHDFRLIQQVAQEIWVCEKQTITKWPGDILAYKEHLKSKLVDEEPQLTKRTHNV
UniProt O75027: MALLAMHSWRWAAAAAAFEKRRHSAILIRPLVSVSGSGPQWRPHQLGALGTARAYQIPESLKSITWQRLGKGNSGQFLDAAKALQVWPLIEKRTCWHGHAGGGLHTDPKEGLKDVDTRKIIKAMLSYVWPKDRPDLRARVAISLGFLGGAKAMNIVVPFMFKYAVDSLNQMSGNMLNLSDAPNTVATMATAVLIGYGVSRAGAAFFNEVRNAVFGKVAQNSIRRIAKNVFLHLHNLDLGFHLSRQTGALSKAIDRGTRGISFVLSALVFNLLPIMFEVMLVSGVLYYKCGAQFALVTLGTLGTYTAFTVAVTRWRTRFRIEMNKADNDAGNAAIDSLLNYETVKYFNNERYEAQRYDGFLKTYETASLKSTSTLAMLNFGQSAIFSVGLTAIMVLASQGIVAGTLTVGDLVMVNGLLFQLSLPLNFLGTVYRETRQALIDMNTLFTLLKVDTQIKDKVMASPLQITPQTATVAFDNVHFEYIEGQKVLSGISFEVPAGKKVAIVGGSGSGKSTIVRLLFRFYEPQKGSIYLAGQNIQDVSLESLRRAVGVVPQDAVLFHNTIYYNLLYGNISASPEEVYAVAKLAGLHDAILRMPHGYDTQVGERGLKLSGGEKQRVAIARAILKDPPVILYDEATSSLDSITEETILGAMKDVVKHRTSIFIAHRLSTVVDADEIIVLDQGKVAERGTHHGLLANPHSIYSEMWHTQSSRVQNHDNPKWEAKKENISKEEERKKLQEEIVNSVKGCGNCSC
UniProt P49748: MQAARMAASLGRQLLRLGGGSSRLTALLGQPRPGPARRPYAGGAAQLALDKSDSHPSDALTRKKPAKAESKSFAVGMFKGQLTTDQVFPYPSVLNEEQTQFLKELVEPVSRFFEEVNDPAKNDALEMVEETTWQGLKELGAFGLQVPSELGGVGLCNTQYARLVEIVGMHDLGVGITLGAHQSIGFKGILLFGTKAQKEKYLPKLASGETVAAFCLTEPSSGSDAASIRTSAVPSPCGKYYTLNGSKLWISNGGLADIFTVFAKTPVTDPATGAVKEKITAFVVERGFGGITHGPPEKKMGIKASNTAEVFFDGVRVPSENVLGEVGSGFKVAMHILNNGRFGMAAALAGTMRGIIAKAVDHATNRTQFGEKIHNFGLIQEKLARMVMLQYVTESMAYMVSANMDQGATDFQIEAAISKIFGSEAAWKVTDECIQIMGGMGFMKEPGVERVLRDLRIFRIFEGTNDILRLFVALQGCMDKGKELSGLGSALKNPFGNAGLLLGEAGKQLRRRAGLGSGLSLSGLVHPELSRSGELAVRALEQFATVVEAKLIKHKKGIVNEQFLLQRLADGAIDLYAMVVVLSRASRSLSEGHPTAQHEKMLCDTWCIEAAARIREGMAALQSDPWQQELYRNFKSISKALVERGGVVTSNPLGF
UniProt P28288: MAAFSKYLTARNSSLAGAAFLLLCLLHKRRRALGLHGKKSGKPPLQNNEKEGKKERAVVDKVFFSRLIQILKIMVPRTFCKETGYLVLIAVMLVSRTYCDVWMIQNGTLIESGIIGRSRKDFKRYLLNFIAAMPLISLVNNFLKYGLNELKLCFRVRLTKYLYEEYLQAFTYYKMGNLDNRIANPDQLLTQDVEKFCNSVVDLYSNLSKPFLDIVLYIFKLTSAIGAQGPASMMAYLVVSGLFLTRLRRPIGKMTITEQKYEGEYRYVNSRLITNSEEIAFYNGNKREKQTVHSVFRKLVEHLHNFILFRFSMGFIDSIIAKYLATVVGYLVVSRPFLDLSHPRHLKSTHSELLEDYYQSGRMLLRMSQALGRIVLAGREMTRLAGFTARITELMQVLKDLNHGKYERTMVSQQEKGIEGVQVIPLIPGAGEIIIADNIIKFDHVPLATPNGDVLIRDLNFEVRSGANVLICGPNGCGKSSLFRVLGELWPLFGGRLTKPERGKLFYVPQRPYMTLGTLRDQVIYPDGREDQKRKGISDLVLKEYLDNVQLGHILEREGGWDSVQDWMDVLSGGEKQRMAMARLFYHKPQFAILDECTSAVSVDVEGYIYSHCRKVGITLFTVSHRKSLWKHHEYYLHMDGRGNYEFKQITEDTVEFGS
UniProt Q9H3P7: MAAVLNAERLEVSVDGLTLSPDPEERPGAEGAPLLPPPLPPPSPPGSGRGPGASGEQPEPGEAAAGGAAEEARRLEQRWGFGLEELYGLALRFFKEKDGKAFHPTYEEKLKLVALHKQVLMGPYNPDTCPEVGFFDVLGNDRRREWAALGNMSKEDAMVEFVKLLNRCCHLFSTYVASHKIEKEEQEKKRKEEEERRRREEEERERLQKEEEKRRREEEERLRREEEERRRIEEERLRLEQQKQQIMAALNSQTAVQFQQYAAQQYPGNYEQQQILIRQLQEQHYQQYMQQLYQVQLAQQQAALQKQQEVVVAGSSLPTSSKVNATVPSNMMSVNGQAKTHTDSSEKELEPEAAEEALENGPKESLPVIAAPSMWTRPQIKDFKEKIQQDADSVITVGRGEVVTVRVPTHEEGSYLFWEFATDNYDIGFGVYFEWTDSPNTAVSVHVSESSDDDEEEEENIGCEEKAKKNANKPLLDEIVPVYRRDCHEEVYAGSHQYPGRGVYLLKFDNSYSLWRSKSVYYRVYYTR
UniProt Q9UKV3: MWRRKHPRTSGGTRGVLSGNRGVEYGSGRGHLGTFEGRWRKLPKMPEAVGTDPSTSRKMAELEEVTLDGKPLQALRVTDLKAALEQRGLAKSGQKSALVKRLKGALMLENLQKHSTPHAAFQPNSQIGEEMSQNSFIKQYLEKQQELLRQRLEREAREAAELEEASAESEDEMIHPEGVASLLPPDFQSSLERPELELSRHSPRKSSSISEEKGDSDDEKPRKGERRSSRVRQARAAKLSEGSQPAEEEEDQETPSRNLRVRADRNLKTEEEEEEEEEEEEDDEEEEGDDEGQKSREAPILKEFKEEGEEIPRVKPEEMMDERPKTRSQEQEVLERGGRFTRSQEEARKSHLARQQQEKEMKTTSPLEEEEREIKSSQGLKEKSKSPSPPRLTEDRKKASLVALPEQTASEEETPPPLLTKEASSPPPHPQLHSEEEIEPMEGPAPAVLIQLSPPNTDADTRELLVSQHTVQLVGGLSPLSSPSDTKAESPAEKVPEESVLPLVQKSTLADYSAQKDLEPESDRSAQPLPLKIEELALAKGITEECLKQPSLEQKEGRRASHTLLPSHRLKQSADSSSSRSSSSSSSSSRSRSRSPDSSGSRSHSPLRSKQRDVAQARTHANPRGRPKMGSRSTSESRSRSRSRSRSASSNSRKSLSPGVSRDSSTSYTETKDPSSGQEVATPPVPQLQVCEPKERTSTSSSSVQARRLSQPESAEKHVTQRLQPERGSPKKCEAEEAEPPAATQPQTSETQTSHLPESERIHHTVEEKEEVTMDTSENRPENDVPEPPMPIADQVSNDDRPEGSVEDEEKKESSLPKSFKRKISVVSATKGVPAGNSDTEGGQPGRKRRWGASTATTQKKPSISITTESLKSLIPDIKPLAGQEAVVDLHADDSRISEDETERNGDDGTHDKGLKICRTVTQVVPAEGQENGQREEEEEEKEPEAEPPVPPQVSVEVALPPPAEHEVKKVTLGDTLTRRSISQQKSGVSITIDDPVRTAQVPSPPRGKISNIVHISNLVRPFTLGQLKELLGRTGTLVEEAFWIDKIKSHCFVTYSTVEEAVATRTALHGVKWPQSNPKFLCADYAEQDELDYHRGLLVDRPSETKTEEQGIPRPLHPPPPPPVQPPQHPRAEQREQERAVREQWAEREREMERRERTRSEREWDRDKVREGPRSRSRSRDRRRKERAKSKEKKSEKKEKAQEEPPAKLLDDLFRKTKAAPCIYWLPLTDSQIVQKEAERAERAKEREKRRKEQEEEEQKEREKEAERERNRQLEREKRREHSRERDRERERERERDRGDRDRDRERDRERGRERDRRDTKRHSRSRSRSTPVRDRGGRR
UniProt P49588, whole entry, looked up: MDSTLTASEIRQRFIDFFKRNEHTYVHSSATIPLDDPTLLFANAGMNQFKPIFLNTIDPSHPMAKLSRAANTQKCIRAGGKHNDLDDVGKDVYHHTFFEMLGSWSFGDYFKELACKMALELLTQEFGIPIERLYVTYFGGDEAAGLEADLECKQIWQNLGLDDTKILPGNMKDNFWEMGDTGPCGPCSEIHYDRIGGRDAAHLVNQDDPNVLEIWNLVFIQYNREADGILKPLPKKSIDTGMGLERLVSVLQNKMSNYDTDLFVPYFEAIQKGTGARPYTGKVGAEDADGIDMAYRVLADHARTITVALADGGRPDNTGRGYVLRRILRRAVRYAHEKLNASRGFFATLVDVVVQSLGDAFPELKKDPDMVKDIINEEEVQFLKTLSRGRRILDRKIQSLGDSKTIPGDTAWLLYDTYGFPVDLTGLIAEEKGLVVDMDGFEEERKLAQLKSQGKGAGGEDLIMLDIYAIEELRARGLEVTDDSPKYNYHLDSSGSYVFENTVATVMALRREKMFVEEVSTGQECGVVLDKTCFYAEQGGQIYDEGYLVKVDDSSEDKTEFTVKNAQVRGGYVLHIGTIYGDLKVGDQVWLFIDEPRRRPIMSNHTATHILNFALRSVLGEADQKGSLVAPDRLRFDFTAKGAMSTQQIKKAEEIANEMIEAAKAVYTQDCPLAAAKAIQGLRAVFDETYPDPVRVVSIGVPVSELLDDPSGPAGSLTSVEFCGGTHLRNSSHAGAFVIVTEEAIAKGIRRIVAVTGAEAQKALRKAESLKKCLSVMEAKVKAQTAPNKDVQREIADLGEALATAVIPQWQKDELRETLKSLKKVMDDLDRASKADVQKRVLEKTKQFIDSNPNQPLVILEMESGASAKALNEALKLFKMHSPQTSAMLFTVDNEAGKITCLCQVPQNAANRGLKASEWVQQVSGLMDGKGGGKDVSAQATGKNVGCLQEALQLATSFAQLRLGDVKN
UniProt Q9NY61: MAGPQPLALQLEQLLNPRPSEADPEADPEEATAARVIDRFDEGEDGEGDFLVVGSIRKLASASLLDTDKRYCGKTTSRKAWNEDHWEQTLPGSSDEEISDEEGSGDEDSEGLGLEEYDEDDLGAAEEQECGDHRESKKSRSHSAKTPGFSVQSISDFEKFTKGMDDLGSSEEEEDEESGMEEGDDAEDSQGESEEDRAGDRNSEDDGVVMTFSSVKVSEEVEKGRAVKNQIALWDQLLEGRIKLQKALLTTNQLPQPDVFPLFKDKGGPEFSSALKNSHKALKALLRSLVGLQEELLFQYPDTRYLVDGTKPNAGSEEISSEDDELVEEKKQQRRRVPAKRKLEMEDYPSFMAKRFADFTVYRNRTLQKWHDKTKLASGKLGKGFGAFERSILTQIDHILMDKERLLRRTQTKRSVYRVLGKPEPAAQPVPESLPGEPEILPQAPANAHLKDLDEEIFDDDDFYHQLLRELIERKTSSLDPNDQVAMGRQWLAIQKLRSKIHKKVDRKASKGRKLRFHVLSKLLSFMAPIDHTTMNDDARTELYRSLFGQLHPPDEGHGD

Each target was assayed with C#Cc1cccc(Nc2ncnc3cc(OCCOC)c(OCCOC)cc23)c1 [erlotinib] (assay: log2 fold change, soluble protein after heating vs DMSO (PISA); higher = thermal stabilisation; K562 lysate, 10 uM; active = over 0.2 and 3.5 SD of the protein, either way, in both replicates (recomputed)).
Procedure, shortened: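 Dounce homogenisation of K562 pellets in PBS pH 7.4 with 1 mM MgCl2 produced a crude extract, used at 1 mg/mL protein. Exposure to 10 μM compound lasted 30 min, and aliquots were then heated for 3 min across 48°C-58°C, pooled and brought to 0.5% NP-40 at 4°C. The supernatant after 21,000xg for 90 min was quantified by TMTpro 16plex LC-MS/MS with channel sums equalised. Duplicate values are given as log-two fold change in thermal stability relative to solvent controls.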

log2 fold change, inactive:
AAK1, A0A096LP25 -0.021
AAMDC (UniProt Q9H7C9) 0.029
ACIN1 (UniProt E7EQT4) 0.001
ACCS (UniProt Q96QU6) -0.002
A0A0B4J2A0, A0A0B4J2A0 0.014
ABL1 isoform 2 (UniProt P00519) 0.026
ABITRAM (UniProt Q9NX38) 0.056
AACS (UniProt Q86V21) 0.037
ABCF2 isoform 2 (UniProt Q9UG63) 0.046
ACACA isoform 4 (UniProt Q13085) 0.024
ABCB7 isoform 2 (UniProt O75027) -0.008
ACADVL isoform 3 (UniProt P49748) -0.066
ABCC4 (UniProt O15439) -0.022
ABCD3 (UniProt P28288) -0.1
ABRAXAS2 (UniProt Q15018) -0.019
ACBD3 (UniProt Q9H3P7) 0.008
ACIN1 isoform 5 (UniProt Q9UKV3) -0.011
A2M (UniProt P01023) -0.016
AARS (UniProt P49588) -0.005
ABI1 isoform 9 (UniProt Q8IZP0) -0.014
AATF (UniProt Q9NY61) -0.007
AAGAB (UniProt Q6PD74) -0.016

5 successive records already listed:
log2 fold change, inactive:
ACIN1 isoform 5 (UniProt Q9UKV3) -0.011
A2M (UniProt P01023) -0.016
AARS (UniProt P49588) -0.005
ABI1 isoform 9 (UniProt Q8IZP0) -0.014
AATF (UniProt Q9NY61) -0.007
